Results are given in words; binding and its absence hold for the method and conditions named. Binding seen in cells or lysates may run through a third protein. Some results given as binding are weak or reduced against the parent protein; the word gives no strength.
Biological target: human Piezo1-mTurquoise2 (human) (UniProt Q92508)
Assay: FRET or BRET

Sequences of proteins named here, by UniProt entry; tags and fusion partners are left off.
UniProt Q92508: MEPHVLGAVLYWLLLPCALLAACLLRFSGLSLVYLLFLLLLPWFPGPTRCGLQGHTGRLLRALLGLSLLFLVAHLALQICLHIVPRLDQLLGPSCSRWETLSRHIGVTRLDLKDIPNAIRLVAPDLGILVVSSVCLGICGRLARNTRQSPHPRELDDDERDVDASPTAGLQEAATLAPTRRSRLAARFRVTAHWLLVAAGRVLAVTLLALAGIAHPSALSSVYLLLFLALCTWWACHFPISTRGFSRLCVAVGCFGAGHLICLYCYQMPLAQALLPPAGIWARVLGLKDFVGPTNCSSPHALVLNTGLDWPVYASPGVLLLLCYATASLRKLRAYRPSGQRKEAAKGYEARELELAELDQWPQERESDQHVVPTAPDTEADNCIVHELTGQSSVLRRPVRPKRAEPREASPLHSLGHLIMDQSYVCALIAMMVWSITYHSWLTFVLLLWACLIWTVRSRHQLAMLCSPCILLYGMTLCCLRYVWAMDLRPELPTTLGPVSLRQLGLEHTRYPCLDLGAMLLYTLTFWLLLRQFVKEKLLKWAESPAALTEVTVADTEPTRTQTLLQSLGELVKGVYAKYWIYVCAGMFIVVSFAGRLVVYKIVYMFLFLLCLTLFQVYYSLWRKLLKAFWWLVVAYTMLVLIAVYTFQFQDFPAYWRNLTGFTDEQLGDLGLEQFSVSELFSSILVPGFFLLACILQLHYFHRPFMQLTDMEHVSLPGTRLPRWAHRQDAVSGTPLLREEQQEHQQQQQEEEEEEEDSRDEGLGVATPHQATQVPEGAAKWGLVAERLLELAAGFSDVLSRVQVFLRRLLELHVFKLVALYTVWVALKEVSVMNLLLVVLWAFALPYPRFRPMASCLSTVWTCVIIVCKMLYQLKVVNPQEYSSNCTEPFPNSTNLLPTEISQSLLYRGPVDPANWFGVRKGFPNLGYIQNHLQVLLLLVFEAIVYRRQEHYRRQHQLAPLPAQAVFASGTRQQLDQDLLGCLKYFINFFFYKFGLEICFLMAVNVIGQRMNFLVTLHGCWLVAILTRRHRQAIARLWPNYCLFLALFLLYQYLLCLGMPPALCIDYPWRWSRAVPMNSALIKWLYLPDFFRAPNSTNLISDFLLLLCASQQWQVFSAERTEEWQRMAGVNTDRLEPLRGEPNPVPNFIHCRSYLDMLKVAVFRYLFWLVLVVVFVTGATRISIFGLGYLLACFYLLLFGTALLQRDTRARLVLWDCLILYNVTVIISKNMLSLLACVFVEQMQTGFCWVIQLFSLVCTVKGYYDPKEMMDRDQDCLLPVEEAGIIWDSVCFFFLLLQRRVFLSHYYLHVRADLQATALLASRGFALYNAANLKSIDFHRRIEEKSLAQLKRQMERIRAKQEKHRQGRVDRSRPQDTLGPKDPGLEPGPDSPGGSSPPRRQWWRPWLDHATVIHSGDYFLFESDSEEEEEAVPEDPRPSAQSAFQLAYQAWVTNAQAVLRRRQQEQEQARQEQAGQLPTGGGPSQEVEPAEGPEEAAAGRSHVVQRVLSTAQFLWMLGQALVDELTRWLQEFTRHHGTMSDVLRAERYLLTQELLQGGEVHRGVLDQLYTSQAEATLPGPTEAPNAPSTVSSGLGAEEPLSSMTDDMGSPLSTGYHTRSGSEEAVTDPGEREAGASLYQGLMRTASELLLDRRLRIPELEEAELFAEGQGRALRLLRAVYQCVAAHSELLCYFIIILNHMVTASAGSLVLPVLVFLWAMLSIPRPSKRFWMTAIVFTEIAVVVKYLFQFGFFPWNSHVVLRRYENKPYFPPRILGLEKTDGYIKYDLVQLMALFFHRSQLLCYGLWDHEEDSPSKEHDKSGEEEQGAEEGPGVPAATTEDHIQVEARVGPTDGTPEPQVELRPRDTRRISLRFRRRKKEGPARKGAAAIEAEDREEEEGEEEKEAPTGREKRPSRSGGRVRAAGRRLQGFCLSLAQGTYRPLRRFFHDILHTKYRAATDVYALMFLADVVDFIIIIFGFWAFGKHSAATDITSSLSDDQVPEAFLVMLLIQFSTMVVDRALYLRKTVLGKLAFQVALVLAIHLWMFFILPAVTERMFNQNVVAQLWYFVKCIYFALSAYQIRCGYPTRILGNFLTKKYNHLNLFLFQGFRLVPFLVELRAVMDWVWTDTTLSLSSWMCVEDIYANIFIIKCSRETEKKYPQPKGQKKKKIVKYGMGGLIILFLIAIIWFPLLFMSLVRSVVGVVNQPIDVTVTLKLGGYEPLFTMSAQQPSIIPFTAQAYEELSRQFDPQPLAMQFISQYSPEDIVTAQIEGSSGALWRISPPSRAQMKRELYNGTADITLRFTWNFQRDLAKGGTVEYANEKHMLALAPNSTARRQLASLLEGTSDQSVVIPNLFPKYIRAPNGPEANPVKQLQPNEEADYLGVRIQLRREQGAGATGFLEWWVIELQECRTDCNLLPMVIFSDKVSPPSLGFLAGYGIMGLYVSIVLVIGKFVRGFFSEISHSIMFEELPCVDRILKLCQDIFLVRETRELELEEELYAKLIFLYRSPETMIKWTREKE

B1: VE-cadherin-mVenus (protein, UniProt P33151 48-784)
chain: DWIWNQMHIDEEKNTSLPHHVGKIKSSVSRKNAKYLLKGEYVGKVFRVDAETGDVFAIERLDRENISEYHLTAVIVDKDTGENLETPSSFTIKVHDVNDNWPVFTHRLFNASVPESSAVGTSVISVTAVDADDPTVGDHASVMYQILKGKEYFAIDNSGRIITITKSLDREKQARYEIVVEARDAQGLRGDSGTATVLVTLQDINDNFPFFTQTKYTFVVPEDTRVGTSVGSLFVEDPDEPQNRMTKYSILRGDYQDAFTIETNPAHNEGIIKPMKPLDYEYIQQYSFIVEATDPTIDLRYMSPPAGNRAQVIINITDVDEPPIFQQPFYHFQLKENQKKPLIGTVLAMDPDAARHSIGYSIRRTSDKGQFFRVTKKGDIYNEKELDREVYPWYNLTVEAKELDSTGTPTGKESIVQVHIEVLDENDNAPEFAKPYQPKVCENAVHGQLVLQISAIDKDITPRNVKFKFILNTENNFTLTDNHDNTANITVKYGQFDREHTKVHFLPVVISDNGMPSRTGTSTLTVAVCKCNEQGEFTFCEDMAAQVGVSIQAVVAILLCILTITVITLLIFLRRRLRKQARAHGKSVPEIHEQLVTYDEEGGGEMDTTSYDVSVLNSVRRGGAKPPRPALDARPSLYAQVQKPPRHAPGAHGGPGEMAAMIEVKKDEADHDGDGPPYDTLHIYGYEGSESIAESLSSLGTDSSDSDVDYDFLNDWGPRFKMLAELYGSDPREELLY
  binding: binds

Source: paper doi:10.1101/602532
